Measured values: PMC3250491
No constants are given. Whether binding was seen depends on the method and setting. Binding seen in cells or lysates may run through a third protein. Some entries that bind do so weakly or less than the wild type.

Protein sequences, listed by entry. Tags and fused reporters are not part of them. Lines headed by an entry give the natural chain unless they say otherwise; changes in a name come on top.
UniProt Q9BSJ2: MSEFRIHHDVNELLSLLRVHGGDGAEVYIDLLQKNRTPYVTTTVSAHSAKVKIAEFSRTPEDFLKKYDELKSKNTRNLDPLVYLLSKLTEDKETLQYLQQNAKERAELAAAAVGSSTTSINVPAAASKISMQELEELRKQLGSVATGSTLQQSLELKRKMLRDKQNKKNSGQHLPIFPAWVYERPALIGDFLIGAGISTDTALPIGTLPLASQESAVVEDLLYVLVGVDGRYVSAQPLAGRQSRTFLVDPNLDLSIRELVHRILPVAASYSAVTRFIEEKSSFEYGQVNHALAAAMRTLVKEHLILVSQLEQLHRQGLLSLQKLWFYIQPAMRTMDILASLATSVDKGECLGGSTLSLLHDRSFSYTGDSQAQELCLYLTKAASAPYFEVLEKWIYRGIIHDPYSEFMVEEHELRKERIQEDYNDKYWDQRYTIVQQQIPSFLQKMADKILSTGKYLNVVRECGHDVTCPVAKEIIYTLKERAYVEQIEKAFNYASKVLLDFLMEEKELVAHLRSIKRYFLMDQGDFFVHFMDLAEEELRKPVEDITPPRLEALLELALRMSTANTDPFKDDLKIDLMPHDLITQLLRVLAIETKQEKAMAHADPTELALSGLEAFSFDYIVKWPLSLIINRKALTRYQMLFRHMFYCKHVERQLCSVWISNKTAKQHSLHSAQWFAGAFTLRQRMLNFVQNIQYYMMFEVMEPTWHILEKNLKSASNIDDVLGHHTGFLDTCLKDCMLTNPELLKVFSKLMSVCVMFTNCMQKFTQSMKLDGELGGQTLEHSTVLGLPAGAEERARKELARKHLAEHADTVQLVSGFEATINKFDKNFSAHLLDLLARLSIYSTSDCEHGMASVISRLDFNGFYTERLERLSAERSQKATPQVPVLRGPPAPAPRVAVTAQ
UniProt Q9UGJ1: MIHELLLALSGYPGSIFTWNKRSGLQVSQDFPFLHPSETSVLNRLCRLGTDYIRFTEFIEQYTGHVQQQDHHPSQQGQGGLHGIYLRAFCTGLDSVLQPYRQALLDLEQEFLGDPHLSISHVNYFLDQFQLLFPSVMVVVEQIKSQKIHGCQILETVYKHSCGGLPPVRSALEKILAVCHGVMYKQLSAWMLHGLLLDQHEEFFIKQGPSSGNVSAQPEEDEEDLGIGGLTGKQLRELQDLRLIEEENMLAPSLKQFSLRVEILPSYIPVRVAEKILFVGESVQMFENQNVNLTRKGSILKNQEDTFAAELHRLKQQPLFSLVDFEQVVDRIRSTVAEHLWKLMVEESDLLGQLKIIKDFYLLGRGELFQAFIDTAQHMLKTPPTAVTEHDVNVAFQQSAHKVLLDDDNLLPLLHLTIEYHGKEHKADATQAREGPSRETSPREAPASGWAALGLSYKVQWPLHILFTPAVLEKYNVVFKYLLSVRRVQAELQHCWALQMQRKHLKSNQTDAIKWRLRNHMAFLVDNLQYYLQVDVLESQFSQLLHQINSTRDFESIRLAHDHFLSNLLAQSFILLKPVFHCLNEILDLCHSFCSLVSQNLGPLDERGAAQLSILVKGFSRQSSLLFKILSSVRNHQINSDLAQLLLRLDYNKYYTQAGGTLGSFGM
UniProt P39688: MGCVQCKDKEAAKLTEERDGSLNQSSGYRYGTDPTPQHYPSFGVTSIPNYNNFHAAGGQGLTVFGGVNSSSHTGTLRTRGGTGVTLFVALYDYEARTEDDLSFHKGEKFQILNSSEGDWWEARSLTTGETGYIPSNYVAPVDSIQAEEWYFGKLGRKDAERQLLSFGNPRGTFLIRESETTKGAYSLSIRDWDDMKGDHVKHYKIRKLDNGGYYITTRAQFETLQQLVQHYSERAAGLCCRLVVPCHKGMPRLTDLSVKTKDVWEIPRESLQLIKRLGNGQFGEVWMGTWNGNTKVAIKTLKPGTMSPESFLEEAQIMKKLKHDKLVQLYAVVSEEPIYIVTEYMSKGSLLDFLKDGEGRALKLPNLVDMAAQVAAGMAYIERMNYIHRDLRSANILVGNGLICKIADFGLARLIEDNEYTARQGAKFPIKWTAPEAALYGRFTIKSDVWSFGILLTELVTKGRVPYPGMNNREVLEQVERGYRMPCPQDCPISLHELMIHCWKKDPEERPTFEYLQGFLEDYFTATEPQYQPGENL
UniProt Q8VCK3: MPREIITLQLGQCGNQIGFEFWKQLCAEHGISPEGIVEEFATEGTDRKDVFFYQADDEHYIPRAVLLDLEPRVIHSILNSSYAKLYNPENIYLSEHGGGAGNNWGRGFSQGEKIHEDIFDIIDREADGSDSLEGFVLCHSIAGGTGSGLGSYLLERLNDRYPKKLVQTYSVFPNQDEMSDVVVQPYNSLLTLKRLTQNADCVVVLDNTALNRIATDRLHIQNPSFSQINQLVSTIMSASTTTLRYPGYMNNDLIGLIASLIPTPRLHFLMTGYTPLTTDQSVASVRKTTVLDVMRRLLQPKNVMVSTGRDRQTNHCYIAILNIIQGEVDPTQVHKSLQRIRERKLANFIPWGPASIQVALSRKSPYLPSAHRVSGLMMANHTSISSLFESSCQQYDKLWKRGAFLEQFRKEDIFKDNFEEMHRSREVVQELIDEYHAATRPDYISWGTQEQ
UniProt Q9NRH3: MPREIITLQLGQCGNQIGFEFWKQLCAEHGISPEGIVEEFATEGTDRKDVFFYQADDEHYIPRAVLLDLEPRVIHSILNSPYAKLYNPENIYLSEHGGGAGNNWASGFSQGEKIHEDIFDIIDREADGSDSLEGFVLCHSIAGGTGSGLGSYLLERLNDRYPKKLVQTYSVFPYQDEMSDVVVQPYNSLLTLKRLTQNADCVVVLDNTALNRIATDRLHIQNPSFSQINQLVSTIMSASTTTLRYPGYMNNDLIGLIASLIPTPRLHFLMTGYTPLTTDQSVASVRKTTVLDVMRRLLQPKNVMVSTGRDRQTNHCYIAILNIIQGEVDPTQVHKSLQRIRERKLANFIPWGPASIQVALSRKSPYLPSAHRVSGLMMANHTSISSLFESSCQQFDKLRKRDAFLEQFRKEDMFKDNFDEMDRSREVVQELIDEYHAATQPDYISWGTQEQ
UniProt P83887: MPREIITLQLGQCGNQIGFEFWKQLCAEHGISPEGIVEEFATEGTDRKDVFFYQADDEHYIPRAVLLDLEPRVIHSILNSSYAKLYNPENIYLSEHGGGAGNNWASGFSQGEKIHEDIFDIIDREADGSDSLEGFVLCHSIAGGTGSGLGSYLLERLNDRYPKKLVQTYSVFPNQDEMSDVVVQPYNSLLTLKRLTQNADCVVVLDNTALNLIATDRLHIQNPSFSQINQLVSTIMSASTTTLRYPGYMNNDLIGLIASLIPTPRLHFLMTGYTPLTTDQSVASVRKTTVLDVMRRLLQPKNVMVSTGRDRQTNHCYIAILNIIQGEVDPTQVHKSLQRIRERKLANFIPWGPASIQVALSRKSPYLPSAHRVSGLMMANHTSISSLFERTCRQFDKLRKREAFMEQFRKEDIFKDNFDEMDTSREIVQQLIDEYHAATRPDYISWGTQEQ

Columns and labels:
[1] = target: γ-tubulin complex protein 2 (GCP2) (human (endogenous in HEK 293FT)) (UniProt Q9BSJ2); assay: co-IP; 1% NP-40 extracts of transfected HEK 293FT cells (48 h after transfection); precipitated with monoclonal antibody GCP2-01 to GCP2 on protein A beads; blots probed for FLAG and γ-tubulin
[2] = target: γ-tubulin complex protein 4 (GCP4) (human (endogenous in HEK 293FT)) (UniProt Q9UGJ1); assay: co-IP; unpublished data (T. Sulimenko): precipitation with antibody to GCP4
[3] = target: FLAG-tagged mouse Fyn kinase (mouse) (UniProt P39688); assay: co-IP; 1% NP-40 extracts of transfected HEK 293FT cells (48 h after transfection); precipitated with rabbit anti-FLAG antibody on protein A beads; blots probed for GCP2 and GCP4
[4] = target: FLAG-tagged mouse γ-tubulin 2 (mouse) (UniProt Q8VCK3); assay: as above
[5] = target: FLAG-tagged human γ-tubulin 2 (M413V variant) (human) (UniProt Q9NRH3); assay: as above
[6] = target: FLAG-tagged mouse γ-tubulin 1 (mouse) (UniProt P83887); assay: as above

binding [1] | binding [2] | binding [3] | binding [4] | binding [5] | binding [6] | Substance
binds | binds | – | – | – | – | FLAG-tagged human γ-tubulin 2 (M413V variant) (from UniProt Q9NRH3 1-451)
binds | binds | – | – | – | – | FLAG-tagged mouse γ-tubulin 2 (from UniProt Q8VCK3 1-451)
– | – | no binding | binds | binds | binds | γ-tubulin complex protein 4 (GCP4) (from UniProt Q9UGJ1 1-667)
– | – | no binding | binds | binds | binds | γ-tubulin complex protein 2 (GCP2) (from UniProt Q9BSJ2 1-902)
